# According to PMC7819943, “Rice protein-binding microarrays: a tool to detect cis-acting elements near promoter regions in rice”:
# Amino acid sequences for entries named in this document (tags omitted).
# UniProt Q0JBA9, entry or part of it: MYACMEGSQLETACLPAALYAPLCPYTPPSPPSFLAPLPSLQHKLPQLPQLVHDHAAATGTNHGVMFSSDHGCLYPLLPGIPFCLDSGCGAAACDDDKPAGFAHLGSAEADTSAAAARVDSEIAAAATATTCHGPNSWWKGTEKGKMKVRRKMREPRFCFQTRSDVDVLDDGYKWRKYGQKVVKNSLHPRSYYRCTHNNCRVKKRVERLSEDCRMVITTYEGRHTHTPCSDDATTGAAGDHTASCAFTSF
# The other results are listed elsewhere or left out.
# Target: OsWRKY34 (Oryza sativa, UniProt Q0JBA9 1-250)
# Experiment: protein-binding microarray (RPBM); PBS, 2% BSA, 51.3 ng/ul salmon testes DNA, 50 uM zinc acetate, 200 nM TF, 25 C, 1 h; high values mean tight binding
# Conditions: protein: recombinant; tags: N-terminal polyhistidine and DsRed monomer fusion (pET32a); label: CyDye5-dUTP incorporated in the synthesized complementary strand; 3' TTTTT single-stranded linker to array surface; dsDNA, one strand shown
# How it was run: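 Per-feature fluorescence intensity (arbitrary units), read on an Axon 4000B scanner, is the binding signal. Transcription factors carrying an N-terminal polyhistidine tag and DsRed fusion were expressed in E. coli BL21-CodonPlus and purified on Ni–NTA. A custom Agilent array, made double-stranded by primer extension with Cy5-dUTP and blocked with 2% BSA, was incubated with 200 nM protein in PBS, 2% BSA, salmon testes DNA and 50 µM zinc acetate at 25 °C for 1 h and then washed.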
row,Sequence,binding signal
1,AATTTCCAGTCCCTACATATTTCCTTTTTTTTCCTGCACTCGGAGTCACCTAGTGCAG,10700 fluorescence intensity (a.u.)
2,TGCCCTAGTATTTGTTTCATGAGTTGTGTCTTAATCAACACGGAGTCACCTAGTGCAG,9620 fluorescence intensity (a.u.)
3,CAAGTCAACCCGCACAGATCTCATGCCAGATGCCACCACGCGGAGTCACCTAGTGCAG,8080 fluorescence intensity (a.u.)
4,GGTCGCTTTCCTGGCCCATTGTTGCGCCCGTCTTTGTCTCCGGAGTCACCTAGTGCAG,9050 fluorescence intensity (a.u.)
5,CCCCGCGCAGCGCAGACCATGGATGTGTACCTCGTTGTTCCGGAGTCACCTAGTGCAG,9410 fluorescence intensity (a.u.)
6,CTGGTCGTCGCTGCTCCGCGTGCCGGTCGGGGTGGGTGGGCGGAGTCACCTAGTGCAG,20100 fluorescence intensity (a.u.)
7,TACCGCTGTTCTTTTTGTCGAGTTTTTTTGCAAGACTGAACGGAGTCACCTAGTGCAG,8990 fluorescence intensity (a.u.)
8,ATTTGTCCCTCCTTCACTTTCCTACTGGCTACTGCGTGATCGGAGTCACCTAGTGCAG,8960 fluorescence intensity (a.u.)
9,GAGCCGCTGGCATCTGGGCCCCATCTTCTCGTCCCCAATCCGGAGTCACCTAGTGCAG,8370 fluorescence intensity (a.u.)
10,GCAGGCAGGATGTTACTATGGCCACGTTTAGTTGGTTAGTCGGAGTCACCTAGTGCAG,8890 fluorescence intensity (a.u.)
11,CTCCACTGCTCTGATGCTCTCTCTCTCTCTCTCTTCACGCCGGAGTCACCTAGTGCAG,10800 fluorescence intensity (a.u.)
12,TTCCTCTCCCGCGACACCATCTTCGACCGCGTCCGGCTGCCGGAGTCACCTAGTGCAG,9740 fluorescence intensity (a.u.)
13,GGCTATGTCTGTCTACCTAATGGTTTTCTGTTTTCTTGGTCGGAGTCACCTAGTGCAG,9420 fluorescence intensity (a.u.)
14,ATTTGGCAACATTCCCTGTATTTTTCCCTGTTCATTGTTCCGGAGTCACCTAGTGCAG,8730 fluorescence intensity (a.u.)
15,TTTTTTTCTGGGGTTGCTTAGAATGGTACTAACTATGATTCGGAGTCACCTAGTGCAG,8900 fluorescence intensity (a.u.)
16,AAAATTACACACAGCATGTACATTACGTCACACCTCATTCCGGAGTCACCTAGTGCAG,8240 fluorescence intensity (a.u.)
17,ATATGCTCATTATTAACCATCTAGCCCATCGTTAATCTAGCGGAGTCACCTAGTGCAG,9090 fluorescence intensity (a.u.)
18,AATTAATCTAACACCCTGGCATCGACCGCCACTCACATATCGGAGTCACCTAGTGCAG,8870 fluorescence intensity (a.u.)
19,GAGAGAGGACGGATGCCGAGGAGGCGTTAGCAATGTTGACCGGAGTCACCTAGTGCAG,8250 fluorescence intensity (a.u.)
20,AACGAACCTCTATAGCTATCCCTTGATAATTCCCTGCATCCGGAGTCACCTAGTGCAG,9520 fluorescence intensity (a.u.)
21,TCCGCACTCCTTGTCGCACATCCCCGCGGGCATGCCCGTTCGGAGTCACCTAGTGCAG,8830 fluorescence intensity (a.u.)

row,Sequence,binding signal
1,GATAGCCACATATATATCGTTGTTTCCTGCTACTAATATACGGAGTCACCTAGTGCAG,8350 fluorescence intensity (a.u.)
2,CATGATTTTACTTTCTTTTCAGGTCTTAGGAGTGAGCTTCCGGAGTCACCTAGTGCAG,8720 fluorescence intensity (a.u.)
3,TACATACACACATGCTAGCTACTCTCATCACTCTAAATTCCGGAGTCACCTAGTGCAG,10500 fluorescence intensity (a.u.)
4,ACGCCGACGCCTCCTCCACCGTCGATTTGCACTTGCGCACCGGAGTCACCTAGTGCAG,11200 fluorescence intensity (a.u.)
5,GGGCCCACCTATCAGGCCTGTCCACGTTGACCACATCGCGCGGAGTCACCTAGTGCAG,12200 fluorescence intensity (a.u.)
6,TTTGGTACACATTCATGTATCGACCGTATTTTCATGTCCTCGGAGTCACCTAGTGCAG,8180 fluorescence intensity (a.u.)
7,AATCCTCTGTATCACCCCAAAAATTGTTTGTAATTCTGTTCGGAGTCACCTAGTGCAG,9280 fluorescence intensity (a.u.)
8,ACCGGCCCAGAACAGTTGGGCAGCCCACGAAGTCACCAACCGGAGTCACCTAGTGCAG,8540 fluorescence intensity (a.u.)
9,ACACCATCCTTCGATTATTCATTTATTCTTGCCTGACTGACGGAGTCACCTAGTGCAG,11400 fluorescence intensity (a.u.)
10,GACCGAGCAGTCCTCCTATGTAAGTTCTTCACTTCTTGTTCGGAGTCACCTAGTGCAG,8940 fluorescence intensity (a.u.)
11,CCTGTCCTGTTACGCTTGACTACTCTCGTTGCCACGTCACCGGAGTCACCTAGTGCAG,10700 fluorescence intensity (a.u.)
12,GTTATTCTCTTATTTCACGATTATTAAGCAGACTCTGTTTCGGAGTCACCTAGTGCAG,9600 fluorescence intensity (a.u.)
13,ATTAATTATGTCATAAACTGTTGTTGATTTGTGCCAGTTTCGGAGTCACCTAGTGCAG,10000 fluorescence intensity (a.u.)
14,TGGCCGCGGCTGCTGCTGAGTGTGGTGGTGGTGGGAGGCACGGAGTCACCTAGTGCAG,8880 fluorescence intensity (a.u.)
15,TATACCGCCTCTGTTCCATCTCTCACACTAGCTTCAGGGACGGAGTCACCTAGTGCAG,10800 fluorescence intensity (a.u.)
16,CCAGGATGATCTGTTCTTGATCGCTTTACCTTTGTTTCTCCGGAGTCACCTAGTGCAG,9240 fluorescence intensity (a.u.)
17,CCTTACGAATTTGTACCATGCATTGTTTGTGGCCTAGCTACGGAGTCACCTAGTGCAG,9750 fluorescence intensity (a.u.)
18,TAATTAATTAATTCGATCCATTTCTGCATAGTTTGCAATTCGGAGTCACCTAGTGCAG,8370 fluorescence intensity (a.u.)
19,TGTGCCGCCGTGCTGTTGTCCATCCACACTGGCGACTCCGCGGAGTCACCTAGTGCAG,13600 fluorescence intensity (a.u.)
20,CCTCCGCCGCCCTAACTACCTCCACCCTTGCCGATGACGGCGGAGTCACCTAGTGCAG,8120 fluorescence intensity (a.u.)
21,TTCAACTGGCCACATAACTCATTCCATTTCCACGCACAAACGGAGTCACCTAGTGCAG,8210 fluorescence intensity (a.u.)

# Given bar-delimited: entries from further up
row | Sequence | binding signal
5 | CCCCGCGCAGCGCAGACCATGGATGTGTACCTCGTTGTTCCGGAGTCACCTAGTGCAG | 9410 fluorescence intensity (a.u.)
6 | CTGGTCGTCGCTGCTCCGCGTGCCGGTCGGGGTGGGTGGGCGGAGTCACCTAGTGCAG | 20100 fluorescence intensity (a.u.)
